These are yes or no findings as the source states them, for the method shown. In cells and extracts the contact can be indirect. Here binding means that the protein was enriched with, or labelled near, the bait; the list need not be complete. Sequences can lack the tags named with a protein.
Molecular target: T1, full-length Kir4.1, N-terminal tags cleaved off (UniProt P78508)
T1 sequence: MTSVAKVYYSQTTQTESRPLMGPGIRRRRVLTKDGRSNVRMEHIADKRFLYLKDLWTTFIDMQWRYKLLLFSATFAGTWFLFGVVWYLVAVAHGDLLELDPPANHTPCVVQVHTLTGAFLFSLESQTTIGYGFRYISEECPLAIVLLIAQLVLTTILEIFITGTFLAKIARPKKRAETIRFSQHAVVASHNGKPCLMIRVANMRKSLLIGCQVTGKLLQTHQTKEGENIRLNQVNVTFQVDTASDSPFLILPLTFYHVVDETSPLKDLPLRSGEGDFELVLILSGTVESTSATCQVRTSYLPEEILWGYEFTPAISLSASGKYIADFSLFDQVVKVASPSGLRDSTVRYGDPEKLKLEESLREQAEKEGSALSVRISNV
Test: affinity purification with mass spectrometry; FLAG-GFP-Kir4.1 stably expressed in HEK293; membranes solubilised in 1% LMNG and 0.12% CHS; FLAG resin, eluted by HRV 3C cleavage, Superose 6 SEC in GDN buffer at pH 8.0, pH 6.0 or 500 mM KCl; tetramer fractions and gel bands (top two Kir4.1 bands, ~10 kDa band) analysed by peptide mass …

Substance: dynein light chain 1 (human (endogenous in HEK293))
- binding: binds

From paper PMC11999606, “Dynein light chains 1 and 2 are auxiliary proteins of pH-sensitive Kir4.1 channels” (The Journal of Biological Chemistry, 2025)
